We go through one substance from patent US20100196951A1.

By UniProt entry, the sequences of proteins in these tests, tags left out.
UniProt P0AE70: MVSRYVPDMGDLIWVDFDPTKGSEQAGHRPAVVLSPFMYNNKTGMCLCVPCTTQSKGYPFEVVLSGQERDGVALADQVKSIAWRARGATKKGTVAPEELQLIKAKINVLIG

These are yes or no findings as the source states them, for the method shown. Binding seen in cells or lysates may run through a third protein. Some entries that bind do so weakly or less than the wild type.

The target in this assay is His-tagged MazF protein (Escherichia coli) (UniProt P0AE70). In words: co-elution with His-tagged MazF in His-tag chromatography, SDS-PAGE with Coomassie staining.

Regarding “MazE antitoxin with the Thrombin-recognition sequence LVPRGS in place of VDGK at positions 38 to 41 (from UniProt P0AE72 1-37; P0AE72 42-82)”, the binding result was “binds”.
